Experimental data from PubChem BioAssay.
Inconclusive means that the source gave no clear call. Such entries were picked first, then a sample of the others. Activity calls are given as the source filed them.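 The calls were made as follows: active = RAM network inhibition above 8.4% in each of two replicates, 3 SD over the compound average; inconclusive = above 8.4% inhibition in only one replicate; inactive = 8.4% inhibition or less in each replicate.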

assay: RAM signaling pathway blockade in yeast – S. cerevisiae, Pdr1DBD-CYC8 efflux-inhibited sensitized strain, primary screen (AID 1298);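 also: 0% = DMSO untreated cells without growth and 100% = 10 µM 1-NA-PP1 full growth; higher means more yeast growth rescued from 5-FOA killing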; conditions: S. cerevisiae cbk1-as DSE1-URA3 strain, 5-FOA growth OD615, 2 d; at 50 µM; active compounds read high

SMILES | RAM network inhibition
Oc1ccccc1C(=S)N1CCCCC1 | inconclusive: 13.9%
Cc1cc2cc(CNC(=O)Cc3cccs3)ccc2n1C | inactive: 8.91%
CCCCSc1nc2c(c(=O)[nH]c(=O)n2C)n1CCc1ccccc1 | inconclusive: 8.9%
O=C(Cn1c(=O)sc2ccccc21)NCc1ccccn1 | inconclusive: 7.9%
COc1cc(Cl)c(S(=O)(=O)N2CCN(Cc3ccc4c(c3)OCO4)CC2)cc1Cl | inconclusive: 11.7%
Cn1c(=O)oc2cc(S(=O)(=O)N3CCC(C(=O)NCC4COc5ccccc5O4)CC3)ccc21 (stereo not given) | inconclusive: 10.4%
COC(=O)C1=CN(C)C=C(C(=O)OC)C1c1ccc(Cl)cc1Cl | inactive: 8.48%
Clc1ccccc1-c1nnc2sc(-c3ccncc3)nn12 | inconclusive: 11.5%
N#Cc1c(NC(=O)CCCN2C(=O)c3ccccc3C2=O)oc(-c2ccccc2)c1-c1ccccc1 | inconclusive: 10.7%
O=S(=O)(Nc1nnc(-c2ccccc2)s1)c1ccc(Cl)cc1 | inactive: 1.95%
Cc1ccc(CNC(=O)CS(=O)Cc2nc(-c3ccccc3C)oc2C)cc1 (stereo not given) | inconclusive: 11.5%
CCOC(=O)C1Cn2c(nc3c(c2=O)C2(CCCC2)Cc2ccccc2-3)S1 (stereo not given) | inconclusive: 13.2%
CCC(Sc1nc2c(cnn2-c2ccccc2)c(=O)[nH]1)C(=O)OC (stereo not given) | inconclusive: 21.4%
O=C(c1ccccc1)N1CCN(c2ccc(NCc3ccc4c(c3)OCO4)cc2)CC1 | inactive: 6.1%
CCCCCCC1C(C#N)=C(N)OC2=C1C(=O)CC(C)(C)C2 (stereo not given) | inconclusive: 14.8%
O=c1c2ccccc2nc(N2CCN(c3ccccc3)CC2)n1Cc1ccccc1 | inconclusive: 14.8%
O=C(Nc1ccc2c(c1)OCO2)C1COc2ccccc2O1 (stereo not given) | inactive: 3.35%
CCCCN(C)C(=O)c1ccc(CS(=O)(=O)c2ccccc2C)o1 | inactive: 3.61%
Cc1ccc(NC(=O)c2cc(-c3ccc(C)o3)nc3ccccc23)nc1 | inactive: 0.74%
COc1ccc(OC)c(NC(=O)C2CCC(CNc3c(N4CCC(C)CC4)c(=O)c3=O)CC2)c1 (stereo not given) | inconclusive: 9.23%

3 entries from above, with tabs.
SMILES	RAM network inhibition
COC(=O)C1=CN(C)C=C(C(=O)OC)C1c1ccc(Cl)cc1Cl	inactive: 8.48%
Clc1ccccc1-c1nnc2sc(-c3ccncc3)nn12	inconclusive: 11.5%
O=C(Nc1ccc2c(c1)OCO2)C1COc2ccccc2O1 (stereo not given)	inactive: 3.35%

Further compounds follow.

SMILES | RAM network inhibition
Cc1[nH]c2ccccc2c1Cc1nnc(SCC(=O)NCc2ccco2)o1 | inconclusive: 8.77%
CCOC(=O)C(CCOc1cccc(CC)c1)C(=O)OCC | inactive: 2.13%
CC1CCN(c2nc3c(c(=O)[nH]c(=O)n3C)n2CCCc2ccccc2)CC1 | inconclusive: 8.92%
CCOC(=O)N1CCN(c2cc(C)nc3nc(C)nn23)CC1 | inactive: 2.21%
O=C(Cn1cc2c(n1)CCCCC2)NCCCN1CCOCC1 | inconclusive: 11.3%
Cc1ccc(-c2nc(CS(=O)CC(=O)NCc3ccc(Cl)cc3)c(C)o2)cc1 (stereo not given) | inconclusive: 22.3%
C1=C(c2ccccc2)CCN(c2nc3ccccc3n3cnnc23)C1 | inconclusive: 9.44%
O=C1c2ccccc2C(Nc2ccc(S(=O)(=O)N3CCOCC3)cc2)N1c1cccnc1 (stereo not given) | inconclusive: 12.2%
CCN(c1ccc2c(c1)OCO2)S(=O)(=O)c1cc(Br)cc2c1N(C(=O)C1CC1)CC2 | inconclusive: 11.1%
COc1ccc(S(=O)(=O)Cc2ccc(C(=O)NC3CC3)o2)cc1 | inactive: 2.57%
Cc1cccc(OCC(=O)N2CCC(c3ccccc3)C2)c1 (stereo not given) | inconclusive: 12.2%
COc1ccc2cc(CCNC(=O)c3ccc(Br)o3)c(=O)[nH]c2c1 | inconclusive: 16.8%
Cc1noc(/C=C/NCc2cccnc2)c1S(=O)(=O)N(C)CC(=O)N1CCc2ccccc21 | inconclusive: 11.1%
Cc1cc(/C=N/n2cnnc2)c(C)n1-c1cc(Cl)ccc1Cl | inactive: 1.38%
CCc1ccccc1S(=O)(=O)Cc1ccc(C(=O)N2CCN(c3ccccc3OC)CC2)o1 | inconclusive: 10.8%
CN(C)c1ccc(-c2noc(C3CCN(S(=O)(=O)c4cccc(Cl)c4)CC3)n2)cc1 | inconclusive: 12.4%
COc1ccc(-c2nc(CS(=O)CC(=O)N3CCCC3)c(C)o2)cc1 (stereo not given) | inconclusive: 12.4%
O=C1C2CCCN2C(c2ccc(F)cc2)N1c1ccc(Cl)cc1 (stereo not given) | inconclusive: 10.6%
Clc1ccc(Cc2nnc(-c3cccs3)o2)cc1 | inconclusive: 14.2%
CCOC(=O)C1CCCN(C(=O)CCCn2nc(C)n3c(cc4sccc43)c2=O)C1 (stereo not given) | inconclusive: 9.97%
